Measurements taken from patent US20060240026A1, “Preventing and/or remedy hematopoietic tumor” (GREEN PEPTIDE CO., LTD., priority 2003, published 2006).
Values joined by “and” are separate entries in the source; they are usually repeats but may differ in a detail not shown here. Identical values can stand only once. At least one peptide structure holds a part that was inferred or is arguable (an end, a ring closure or a residue). Ends that are not written are not given here.

Key:
[1] = tested on: PBMCs of HLA-A24+ patients with hematologic malignancies; assay: IFN-γ production by peptide-stimulated patient PBMCs in response to peptide-pulsed C1R-A24 cells; type: cell-based, human; parameters: peptide-specific IFN-γ production: unit not given here; conditions: for peptide-specific IFN-γ production: 10 μM peptide in vitro, vs peptide-pulsed C1R-A24, HIV-peptide background subtracted; for Responding case/total (enhancement of IFN-γ production): ten HLA-A24+ patients with hematologic malignancies
Protocol: The induction of peptide-specific cytotoxic T lymphocytes from PBMCs of a patient with hematologic malignancy was conducted as reported preveously (Non-Patent Reference 5). The following peptides were used to induce cytotoxic T lymphocytes: p56^lck protein-derived peptides (Lck208 (SEQ ID NO: 1), Lck488 (SEQ ID NO: 2) and Lck486 (SEQ ID NO: 3)); SART-1-derived peptide (SART-1690 (SEQ ID NO: 4)); SART-2-derived peptides (SART-293 (SEQ ID NO: 5), SART-2161 (SEQ ID NO: 6) and SART-2899 (SEQ ID NO: 7)); SART-3-derived peptides (SART-3109 (SEQ ID NO: 8) and SART-3315 (SEQ ID NO: 9)); and ART-1-derived peptide (ART-1170 (SEQ ID NO: 10)). All of these peptides are the epithelial cancer-related antigen-derived peptides and have the ability to induce cytotoxic T lymphocytes from PBMCs of an epithelial cancer patient in an HLA-A24 dependent manner (Non-Patent References 3-6 and 12). A human immunodeficiency virus (HIV)-derived peptide (SEQ ID NO: 11) and Epstein-Barr virus (EBV)-derived peptide (SEQ ID NO: 12) were used respectively as a negative control peptide and positive control peptide both of which have an HLA-A24-binding motif. […] PBMCs were prepared from peripheral blood that was collected from a patient with hematologic malignancy using Ficoll-Conray density-gradient centrifugation. The expression of HLA-A24 molecules on PBMCs was determined using flow cytometry by a well known method (Non-Patent Reference 5). The induction of cytotoxic T lymphocytes from PBMCs was conducted as follows. […] The culture medium consisted of 45% RPMI-1640, 45% AIM-V (Invitrogen), 10% FCS, 100 U/ml of interleukin-2 (IL-2), and 0.1 mM MEM non-essential amino acid solution (Invitrogen). […] The background IFN-γ production in response to the HIV-derived peptide (SEQ ID NO: 11) was subtracted from the values given in the data. When the mean value of the IFN-γ produced from the peptide-stimulated PBMCs in response to a corresponding peptide was higher than that produced in response to the HIV peptide (SEQ ID NO: 11), it was judged that the precursor of a peptide-specific cytotoxic T lymphocyte was present in the PBMCs and that the peptide-specific cytotoxic T lymphocytes were induced by the peptide. PBMCs of ten cases of HLA-A24^+ patients with hematologic malignancies (two cases with CLL, one case with MCL, one case with NHL, one case with B-ALL, one case with MM, one case with MDS, two cases with ATL, and one case with T-ALL) were tested for the induction of cytotoxic T lymphocytes using peptides that were derived from p56^lck protein, SART-1, SART-2, SART-3 and ART-1. The peptides used were the peptides that induced peptide-specific tumor-reactive cytotoxic T lymphocytes from PBMCs of an HLA-A24^+ epithelial cancer patient, which are currently on clinical trials for use as vaccines for epithelial cancer patients. The PBMCs were stimulated with the peptide in vitro to measure the peptide-specific IFN-γ production.

[2] = tested on: C1R-A24 cells pulsed with the peptides; assay: IFN-γ production of PBMCs of vaccinated chronic lymphocytic leukemia patient; type: in vivo, human; conditions: CLL patient No. 1, with the increasing number of peptide vaccination
Excerpt: The patient (patient No. 1 in table 2) subjected to clinical trials was a HLA-A24^+ […] suffering from chronic lymphocytic leukemia with a stage A by Bernet's classification.
Two kinds of emulsions prepared using these peptides according to the methods described in Example 5 were vaccinated to the patient by injecting subcutaneously at different sites of the patient's lateral thigh.
After each vaccination, PBMCs derived from the patient were studied for the peptide-specific cytotoxic T lymphocyte induction by measuring the amount of IFN-γ production as an indicator against C1R-A24 cells pulsed with the peptides used (see Example 3).

[3] = tested on: C1R-A24 cells pulsed with the peptides; assay: Peptide-specific cytotoxic activity of PBMCs of vaccinated multiple myeloma patient (51Cr-release); type: in vivo, human; conditions: MM patient No. 6, with the increasing number of peptide vaccination
Excerpt: The patient (patient No. 6 in table 2) subjected to clinical trials was a HLA-A24^+ […] suffering from IgA-type multiple myeloma with a stage III by Durie & Salmon's classification. The patient received multiple cycles of chemotherapy before participating in this clinical test and had acquired the resistance to chemotherapy. However, for four weeks before peptide vaccination, the patient had not received chemotherapy and administration with steroid or any other immunosuppressive drugs.
Three kinds of emulsions each of which contains each of these peptides respectively and an adjuvant were prepared according to the method described in Example 1, and vaccinated to the patient by injecting subcutaneously at different sites of the patient's lateral thigh. […] The skin test was conducted by injecting intradermally the solution of 50 μg of each peptide in physiological saline and determining immediate-type or delayed-type hypersensitivity reaction at 20 minutes or 24 hours after the injection.
The vaccinations were conducted seven times every two weeks using SART-1690 (SEQ ID NO: 4), Lck488 (SEQ ID NO: 2) and ART-1170 (SEQ ID NO: 10). The cytotoxic activity of PBMCs acquired after the sixth vaccination was measured according to the in vitro test described in Example 3. […]

SYTRLFLIL [SART-2899]
peptide-specific IFN-γ production ([1]; PBMCs of patient #1 CLL): 0 | peptide-specific IFN-γ production ([1]; PBMCs of patient #2 CLL): 15 | peptide-specific IFN-γ production ([1]; PBMCs of patient #3 MCL): 12 | peptide-specific IFN-γ production ([1]; PBMCs of patient #4 NHL): 220 | peptide-specific IFN-γ production ([1]; PBMCs of patient #5 B-ALL): 0 | peptide-specific IFN-γ production ([1]; PBMCs of patient #6 MM): 0 | peptide-specific IFN-γ production ([1]; PBMCs of patient #7 MDS): 0 | peptide-specific IFN-γ production ([1]; PBMCs of patient #8 ATL): 12 | peptide-specific IFN-γ production ([1]; PBMCs of patient #9 ATL): 346 | peptide-specific IFN-γ production ([1]; PBMCs of patient #10 T-ALL): 526 | Responding case/total (enhancement of IFN-γ production) [1]: 3/10

AYDFLYNYL [SART-2161]
peptide-specific IFN-γ production ([1]; PBMCs of patient #1 CLL): 0 | peptide-specific IFN-γ production ([1]; PBMCs of patient #2 CLL): 177 | peptide-specific IFN-γ production ([1]; PBMCs of patient #3 MCL): 49 | peptide-specific IFN-γ production ([1]; PBMCs of patient #4 NHL): 13 | peptide-specific IFN-γ production ([1]; PBMCs of patient #5 B-ALL): 0 | peptide-specific IFN-γ production ([1]; PBMCs of patient #6 MM): 28 | peptide-specific IFN-γ production ([1]; PBMCs of patient #7 MDS): 0 | peptide-specific IFN-γ production ([1]; PBMCs of patient #8 ATL): 0 | peptide-specific IFN-γ production ([1]; PBMCs of patient #9 ATL): 198 | peptide-specific IFN-γ production ([1]; PBMCs of patient #10 T-ALL): 227 | Responding case/total (enhancement of IFN-γ production) [1]: 3/10

VYDYNCHVDL [SART-3109]
peptide-specific IFN-γ production ([1]; PBMCs of patient #1 CLL): 49 | peptide-specific IFN-γ production ([1]; PBMCs of patient #2 CLL): 0 | peptide-specific IFN-γ production ([1]; PBMCs of patient #3 MCL): 7 | peptide-specific IFN-γ production ([1]; PBMCs of patient #4 NHL): 0 | peptide-specific IFN-γ production ([1]; PBMCs of patient #5 B-ALL): 0 | peptide-specific IFN-γ production ([1]; PBMCs of patient #6 MM): 0 | peptide-specific IFN-γ production ([1]; PBMCs of patient #7 MDS): 11 | peptide-specific IFN-γ production ([1]; PBMCs of patient #8 ATL): 49 | peptide-specific IFN-γ production ([1]; PBMCs of patient #9 ATL): 0 | peptide-specific IFN-γ production ([1]; PBMCs of patient #10 T-ALL): 0 | Responding case/total (enhancement of IFN-γ production) [1]: 0/10 | IFN-γ production in response to C1R-A24 cells pulsed with the peptide [2]: enhanced production of interferon (IFN)-γ

TFDYLRSVL [Lck486]
peptide-specific IFN-γ production ([1]; PBMCs of patient #1 CLL): 0 | peptide-specific IFN-γ production ([1]; PBMCs of patient #2 CLL): 0 | peptide-specific IFN-γ production ([1]; PBMCs of patient #3 MCL): 0 | peptide-specific IFN-γ production ([1]; PBMCs of patient #4 NHL): 0 | peptide-specific IFN-γ production ([1]; PBMCs of patient #5 B-ALL): 0 | peptide-specific IFN-γ production ([1]; PBMCs of patient #6 MM): 0 | peptide-specific IFN-γ production ([1]; PBMCs of patient #7 MDS): 0 | peptide-specific IFN-γ production ([1]; PBMCs of patient #8 ATL): 140 | peptide-specific IFN-γ production ([1]; PBMCs of patient #9 ATL): 2099 | peptide-specific IFN-γ production ([1]; PBMCs of patient #10 T-ALL): 140 | Responding case/total (enhancement of IFN-γ production) [1]: three and 3/10

EYCLKFTKL [ART-1170]
peptide-specific IFN-γ production ([1]; PBMCs of patient #1 CLL): 501 | peptide-specific IFN-γ production ([1]; PBMCs of patient #2 CLL): 33 | peptide-specific IFN-γ production ([1]; PBMCs of patient #3 MCL): 0 | peptide-specific IFN-γ production ([1]; PBMCs of patient #4 NHL): 0 | peptide-specific IFN-γ production ([1]; PBMCs of patient #5 B-ALL): 0 | peptide-specific IFN-γ production ([1]; PBMCs of patient #6 MM): 94 | peptide-specific IFN-γ production ([1]; PBMCs of patient #7 MDS): 0 | peptide-specific IFN-γ production ([1]; PBMCs of patient #8 ATL): 69 | peptide-specific IFN-γ production ([1]; PBMCs of patient #9 ATL): 1487 | peptide-specific IFN-γ production ([1]; PBMCs of patient #10 T-ALL): 3 | Responding case/total (enhancement of IFN-γ production) [1]: 2/10 | cytotoxic activity (% lysis) against C1R-A24 cells pulsed with corresponding peptide [3]: enhanced induction of cytotoxic activity
